Experimental data taken from publication PMC10518494.

Biological target: T1, Flag-Rnd3 (UniProt P61588)
T1 sequence: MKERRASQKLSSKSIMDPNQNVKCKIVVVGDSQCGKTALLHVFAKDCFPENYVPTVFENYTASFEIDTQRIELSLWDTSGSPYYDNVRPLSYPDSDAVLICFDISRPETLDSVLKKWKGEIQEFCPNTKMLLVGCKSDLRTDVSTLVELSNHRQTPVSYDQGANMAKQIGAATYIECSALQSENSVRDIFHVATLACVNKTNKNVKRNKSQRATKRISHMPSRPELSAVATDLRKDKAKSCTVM
Assay: affinity purification with mass spectrometry; anti-Flag immunoprecipitation from ECs treated with Ad-Flag-Rnd3 under oxLDL challenge; IgG as negative control; gel with silver staining; band below 63 kDa analysed by LC-MS/MS

- binding: binds
B1: tumor necrosis factor receptor-associated factor 6 (endogenous, mouse aortic endothelial cells) (protein, UniProt P70196 1-530)
chain: MSLLNCENSCGSSQSSSDCCAAMAASCSAAVKDDSVSGSASTGNLSSSFMEEIQGYDVEFDPPLESKYECPICLMALREAVQTPCGHRFCKACIIKSIRDAGHKCPVDNEILLENQLFPDNFAKREILSLTVKCPNKGCLQKMELRHLEDHQVHCEFALVNCPQCQRPFQKCQVNTHIIEDCPRRQVSCVNCAVSMAYEEKEIHDQSCPLANIICEYCGTILIREQMPNHYDLDCPTAPIPCTFSVFGCHEKMQRNHLARHLQENTQLHMRLLAQAVHNVNLALRPCDAASPSRGCRPEDPNYEETIKQLESRLVRQDHQIRELTAKMETQSMYVGELKRTIRTLEDKVAEMEAQQCNGIYIWKIGNFGMHLKSQEEERPVVIHSPGFYTGRPGYKLCMRLHLQLPTAQRCANYISLFVHTMQGEYDSHLPWPFQGTIRLTILDQSEALIRQNHEEVMDAKPELLAFQRPTIPRNPKGFGYVTFMHLEALRQGTFIKDDTLLVRCEVSTRFDMGGLRKEGFQPRSTDAGV

These are yes or no findings as the source states them, for the method shown. In cells and extracts the contact can be indirect. Here binding means that the protein was enriched with, or labelled near, the bait; the list need not be complete. Tags and fused reporters may be left off the sequences shown.
